Binding data for one substance are collected here from publication PMC4742757, “The Prodomain-bound Form of Bone Morphogenetic Protein 10 Is Biologically Active on Endothelial Cells*” (The Journal of Biological Chemistry, 2015).

The target in this test is T1, BMP10 growth factor domain secreted from mouse right atrium (mouse (endogenous in right atrium)) (UniProt Q9R229).
T1 sequence: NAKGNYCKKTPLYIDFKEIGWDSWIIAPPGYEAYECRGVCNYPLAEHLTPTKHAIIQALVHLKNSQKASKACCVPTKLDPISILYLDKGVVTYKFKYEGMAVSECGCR
The test can be described thus: ELISA; sandwich ELISA on undiluted Superdex 200 fractions (PBS) of mouse right atrium conditioned medium: capture by coated anti-BMP10 monoclonal antibody, detection by biotinylated anti-BMP10 propeptide antibody. In general terms: An ELISA detects its analyte on a solid surface through an enzyme-linked reagent.

Results are given in words; binding and its absence hold for the method and conditions named. A result given as binding can be weak or reduced; the word gives no strength.

In the case of “BMP10 prodomain secreted from mouse right atrium (domain or fragment)”, the binding entry was “binds”.
